Here are results for two molecules from PMC10716476.

The target in assay [1] is HVO_0758 (zinc finger μ-protein from Haloferax volcanii), heterologously produced (Haloferax volcanii) (UniProt D4GTQ1). Nature of the assay: NMR relaxation (rotational correlation time); 15N-labelled sample, 600 MHz; 25 mM BisTris pH 7, 1 M NaCl, 5 mM 2-mercaptoethanol, 100 uM ZnCl2, 298 K; experimental tau-c (TENSOR2, from R1, R2, hetNOE) compared with tau-c calculated from the structure (Hydronmr); both purified.

Assay [2] concerns the target HVO_0758 with hexahistidine tag, homologously produced (Haloferax volcanii) (UniProt D4GTQ1). The assay is described as follows: SEC; preparative SEC of the nickel chelating eluate on SuperDex 75 Increase (10/30), 2.1 M NaCl, 20 mM HEPES pH 7.5, 0.4 mL/min; standard curve with aprotinin, RNAse A, ovalbumin, conalbumin; both purified.

No constants are given. Whether binding was seen depends on the method and setting. For some assays here: Sequences can lack the tags named with a protein.

B1: HVO_0758 (zinc finger μ-protein from Haloferax volcanii), heterologously produced (protein, UniProt D4GTQ1 1-56)
chain: MKTTRKGLRDGELEKDTYGRLTCSECGESLKKKNDPDEVFSVRICADCGREWKELR
Take B1: the binding entry in assay [1] is “no binding”.

B2: HVO_0758 with hexahistidine tag, homologously produced (protein, UniProt D4GTQ1 1-56)
chain: MKTTRKGLRDGELEKDTYGRLTCSECGESLKKKNDPDEVFSVRICADCGREWKELR
As for B2, the binding result in assay [2] is listed as “no binding”.
